Test results from patent US20090181975A1, “NEBIVOLOL IN THE TREATMENT OF SEXUAL DYSFUNCTION” (FOREST LABORATORIES HOLDINGS LIMITED, priority 2008, published 2009).

Experiments:
Format in all cases: in vivo, rat (Sprague-Dawley)
[1] = test system: cGMP in rat plasma; test: Plasma cGMP content by ELISA; settings: i.v.: atenolol 3 mg/kg, sildenafil 0.3 mg/kg, sodium nitroprusside 0.1 mg/kg
Description: To determine the plasma cGMP content, Sprague-Dawley rats were anesthetized with urethane (1.25 g/kg). The right carotid artery was catheterized for constant blood pressure and heart rate measurement by means of a pressure transducer connected to a PowerLab data acquisition system (ADInstruments). The left external jugular vein was catheterized for saline or drug infusion. After administering the respective treatments, rat plasma samples were collected, immediately frozen and stored at −80° C. until extraction for cyclic nucleotide assay. cGMP was determined by ELISA using a kit from Cayman Chemical Co. Plasmatic cGMP levels were determined 10 minutes after nebivolol administration.

[2] = test system: cGMP in rat plasma; test: Plasma cGMP in STZ-diabetic rats; settings: 3 and 10 mg/kg/day for 10 days
Description: Male Sprague-Dawley rats were used as a model for this study. Diabetes was induced by a single injection of streptozotocin (STZ, 60 mg/kg; i.p.) dissolved in 0.1 M citric acid/trisodic citrate buffer (pH 4-4.5) and was assessed by glycemia determination 72 h after induction. Animals were kept, with free access to food and water, for 8 weeks before experimental assays. Eight weeks after induction of diabetes, rats show altered in vivo vascular function (Angulo et al., Naunyn-Schmiedeberg's Arch Pharmacol, 358(5), 529-37, 1998) and reduced erectile responses (Angulo et al., J. Sex Med., 2, 341-346, 2005). Blood glucose concentration was determined each week and just before the experiment. Insulin levels were not determined. Plasma samples were collected, immediately frozen and stored at −80° C. until extraction for cyclic nucleotide assay. […] The tissues were then extracted by homogenization in 6% trichloroacetic acid, followed by ether (H2O-saturated) extraction and lyophilization. cGMP was determined by ELISA using a kit from Cayman Chemical Co. Eight weeks after untreated diabetes, subcutaneous osmotic minipumps (Alzet, Cupertino, Calif., 2002 model) containing vehicle (PEG300:DMSO, 1:1), atenolol or nebivolol were implanted. […] After 10 days treatment, diabetic rats were anesthetized and erectile responses to cavernosal nerve electrical stimulation (CNES) were determined. […]

[3] = test system: thiobarbituric acid reactive substances (TBARS) in rat serum; test: Serum TBARS in STZ-diabetic rats; settings: administered for 10 days; groups with and without sildenafil pooled
Description: Male Sprague-Dawley rats were used as a model for this study. Diabetes was induced by a single injection of streptozotocin (STZ, 60 mg/kg; i.p.) dissolved in 0.1 M citric acid/trisodic citrate buffer (pH 4-4.5) and was assessed by glycemia determination 72 h after induction. Animals were kept, with free access to food and water, for 8 weeks before experimental assays. Eight weeks after induction of diabetes, rats show altered in vivo vascular function (Angulo et al., Naunyn-Schmiedeberg's Arch Pharmacol, 358(5), 529-37, 1998) and reduced erectile responses (Angulo et al., J. Sex Med., 2, 341-346, 2005). Blood glucose concentration was determined each week and just before the experiment. Insulin levels were not determined. […] Thiobarbituric acid reactive substances (TBARS) were determined by reacting thiobarbituric acid with serum samples at 70° C. for 30 min and reading absorbance at 532 nm. Serum concentrations of TBARS were determined by using malondialdehyde (MDA) as a standard. […] Results were expressed as ng/ml of MDA equivalents. […] After 10 days treatment, diabetic rats were anesthetized and erectile responses to cavernosal nerve electrical stimulation (CNES) were determined. […] Forty five minutes later, erectile responses to CNES were again evaluated, and 5 min after CNES application, blood was collected for obtaining plasma and serum, and the penis was excised. […]

## CC(C)NCC(O)COc1ccc(CC(N)=O)cc1 (stereo not shown) [atenolol]
[1]
  effect on plasma cGMP levels: did not significantly modify
[2]
  effect on plasma cGMP content in diabetic rats: did not result in significant modifications
[2]; sildenafil 0.3 mg/kg i.v.
  influence on the effects of sildenafil on plasma cGMP content in diabetic rats: did not influence
[3]
  effect on TBARS levels in diabetic rats: trend to reduce
